Values from PubChem BioAssay AID743121 (NCATS, 2013)
Screen: 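Knock-downs that sensitise breast cancer cells to camptothecin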 (primary screen). System: MDA-MB-231 cells, a human breast cancer line. Reagents: single siRNA against human genes, 20 nM siRNA (0.8 pmol per well). Duration: 120 h (drug added 48 h after transfection, read 72 h later). Challenge: camptothecin 20 nM (about EC30) for 72 h; vehicle 0.1% DMSO in parallel plates. Read-out: 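Cell viability by ATP luminescence (CellTiter-Glo) as % of non-targeting siRNA wells, and the log2 ratio of viability without drug over viability with camptothecin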. Direction: log2 vehicle/camptothecin viability: higher = stronger sensitisation to camptothecin; viability with camptothecin and viability without drug: higher = more viable cells. Rule for the call: 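Each gene scored by redundant siRNA activity (RSA) over its individual siRNA ratios; a gene is called active at p < 0.001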.
The whole screen tested about 26,000 reagents; this is a part drawn at random. 167 of all reagents (0.63%) count as active. 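Calls are per gene from RSA p-values that are not deposited; an individual active-marked siRNA can sensitise only weakly.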 Reagents against one gene are numbered here. Reagent sequences are not shown.

gene symbol	reagent	log2 vehicle/camptothecin viability	viability with camptothecin (% of control)	viability without drug (% of control)	outcome
RBM24 (GeneID 221662)	1	-0.309	65.9	53.2	inactive
RBM24 (GeneID 221662)	2	-0.285	59.4	48.8	inactive
RBM24 (GeneID 221662)	3	-0.13	97.1	88.7	inactive
REEP6 (GeneID 92840)	1	-0.244	115	96.9	inactive
REEP6 (GeneID 92840)	2	-0.831	65.3	36.7	inactive
REEP6 (GeneID 92840)	3	-0.214	73.7	63.5	inactive
REEP6 (GeneID 92840)	4	-0.179	107	94.3	inactive
CR1L (GeneID 1379)	1	-0.133	115	105	inactive
CR1L (GeneID 1379)	2	0.232	34.4	40.4	inactive
CR1L (GeneID 1379)	3	-0.0138	96.4	95.5	inactive
CR1L (GeneID 1379)	4	-0.508	94.9	66.7	inactive
TRIM51 (GeneID 84767)	1	-0.615	96	62.6	inactive
TRIM51 (GeneID 84767)	2	-0.0216	62.7	61.7	inactive
TRIM51 (GeneID 84767)	3	-0.00318	64.5	64.4	inactive
TRIM51 (GeneID 84767)	4	-0.587	60.1	40	inactive
KIF18A (GeneID 81930)	1	-0.36	28.1	21.9	inactive
KIF18A (GeneID 81930)	2	-0.427	27.9	20.8	inactive
KIF18A (GeneID 81930)	3	-0.0537	56.5	54.5	inactive
KIF18A (GeneID 81930)	4	0.1	58.8	63	inactive
TRPC4 (GeneID 7223)	1	0.0628	14.5	15.1	inactive
TRPC4 (GeneID 7223)	2	-0.618	20.7	13.5	inactive
TRPC4 (GeneID 7223)	3	-0.48	91.5	65.6	inactive
TRPC4 (GeneID 7223)	4	-0.118	44.6	41.1	inactive
IL22RA1 (GeneID 58985)	1	-0.0737	112	106	inactive
IL22RA1 (GeneID 58985)	2	-0.0538	84.2	81.1	inactive
IL22RA1 (GeneID 58985)	3	-0.188	75.8	66.5	inactive
IL22RA1 (GeneID 58985)	4	-0.232	57.6	49	inactive
AMPD2 (GeneID 271)	1	-0.65	35.7	22.8	inactive
AMPD2 (GeneID 271)	2	-0.496	109	77.1	inactive
AMPD2 (GeneID 271)	3	0.783	35.4	61	inactive
AMPD2 (GeneID 271)	4	0.143	72.1	79.6	inactive
LEF1 (GeneID 51176)	1	-0.473	81.6	58.8	inactive
LEF1 (GeneID 51176)	2	-0.105	86.5	80.4	inactive
LEF1 (GeneID 51176)	3	0.0618	67	69.9	inactive
LEF1 (GeneID 51176)	4	0.28	46.8	56.9	inactive
AJAP1 (GeneID 55966)	1	0.595	23.7	35.9	inactive
AJAP1 (GeneID 55966)	2	-0.227	94.6	80.8	inactive
AJAP1 (GeneID 55966)	3	-0.0904	113	106	inactive
AJAP1 (GeneID 55966)	4	-0.158	110	98.3	inactive
AJAP1 (GeneID 55966)	5	-0.0879	112	106	inactive
AJAP1 (GeneID 55966)	6	-0.336	104	82.5	inactive
AJAP1 (GeneID 55966)	7	-0.225	101	86.2	inactive
AJAP1 (GeneID 55966)	8	-0.393	81.9	62.4	inactive
SHPK (GeneID 23729)	1	0.053	90.7	94.1	inactive
SHPK (GeneID 23729)	2	0.237	76.8	90.6	inactive
SHPK (GeneID 23729)	3	0.0832	74.4	78.9	inactive
SHPK (GeneID 23729)	4	-0.00501	37.7	37.6	inactive
FKBP2 (GeneID 2286)	1	-0.182	87.1	76.7	inactive
FKBP2 (GeneID 2286)	2	0.503	54.8	77.6	inactive
FKBP2 (GeneID 2286)	3	0.105	67.8	72.9	inactive
FKBP2 (GeneID 2286)	4	0.018	82.6	83.6	inactive
SLC2A2 (GeneID 6514)	1	0.695	17	27.6	inactive
SLC2A2 (GeneID 6514)	2	0.215	92.2	107	inactive
SLC2A2 (GeneID 6514)	3	0.0644	112	117	inactive
SLC2A2 (GeneID 6514)	4	0.143	79.3	87.5	inactive
SMAD7 (GeneID 4092)	1	-0.321	61.9	49.6	inactive
SMAD7 (GeneID 4092)	2	-0.152	66.1	59.4	inactive
SMAD7 (GeneID 4092)	3	0.211	97.5	113	inactive
SMAD7 (GeneID 4092)	4	-0.406	117	88	inactive
BICRA (GeneID 29998)	1	-0.104	85.1	79.2	inactive
BICRA (GeneID 29998)	2	-0.477	53.8	38.7	inactive
BICRA (GeneID 29998)	3	-0.006	65.4	65.2	inactive
BICRA (GeneID 29998)	4	0.543	60.8	88.6	inactive
TGFB1I1 (GeneID 7041)	1	-0.363	87.6	68.1	inactive
TGFB1I1 (GeneID 7041)	2	-0.381	58	44.5	inactive
TGFB1I1 (GeneID 7041)	3	-0.406	40	30.2	inactive
TGFB1I1 (GeneID 7041)	4	-0.378	83.1	63.9	inactive
ARHGDIG (GeneID 398)	1	0.101	89.6	96.1	inactive
ARHGDIG (GeneID 398)	2	-0.147	96.3	86.9	inactive
ARHGDIG (GeneID 398)	3	-0.237	80.9	68.6	inactive
ARHGDIG (GeneID 398)	4	0.53	73.7	106	inactive

Taken from above.
CR1L (GeneID 1379) #1, viability with camptothecin (% of control): 115
Entry for REEP6 (GeneID 92840) #4 under “viability with camptothecin (% of control)”: 107
Value for BICRA (GeneID 29998) #3 in “viability with camptothecin (% of control)”: 65.4
For “viability without drug (% of control)”, LEF1 (GeneID 51176) #3 is entered as 69.9
Result of REEP6 (GeneID 92840) #2 under “viability with camptothecin (% of control)”: 65.3
Result of AMPD2 (GeneID 271) #1 in “outcome”: inactive
